Values of other authors in patent US20220387435A1, “USE OF MULTI-TARGET PROTEIN KINASE INHIBITOR” (CSPC Zhongqi Pharmaceutical Technology (Shijiazhuang) Co., …, priority 2019, published 2022).
Entries after “also recorded” stand apart in the source; their conditions may differ. At least one structure is not confirmed: it was looked up by name or label, or the drawing left a doubt.

What was measured:
AML patients = details: cited from earlier work
[1] = test system: FLT3, EGFR, Abl, Fyn, Hck, Lck, Lyn, Ret, Yes; details: similar products, prior art; cited from earlier work
FLT3-TKD mutation = details: similar products, prior art; cited from earlier work

SMILES	CR rates in monotherapy for R/R AML (AML patients; Sorafenib 400 mg BID, Midostaurin 50 mg BID, Quizartinib 30-60 mg QD, Gilteritinib 120 mg QD)	median event-free survival (AML patients; Rydapt combination therapy with chemotherapy) [months]	Non-FLT3 targets [1]	FLT3-TKD mutation activity (FLT3-TKD mutation)
CCc1nc(C(N)=O)c(Nc2ccc(N3CCC(N4CCN(C)CC4)CC3)c(OC)c2)nc1NC1CCOCC1 [Gilteritinib]	37-41%	–	–	–
CO[C@@H]1[C@H](N(C)C(=O)c2ccccc2)C[C@H]2O[C@]1(C)n1c3ccccc3c3c4c(c5c6ccccc6n2c5c31)C(=O)NC4 [Midostaurin]	–	8.2	c-KIT, PKC,; also recorded: PDGFR,; also recorded: VEGFR	Yes
